Measured data: PubChem BioAssay AID1671195 (Yale University, 2021)
The deposit covers about 22,000 reagents; this is an unselected part. About 1,510 of all reagents (6.9%) count as active. 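Active includes knockdowns raising or lowering LDL uptake; positive z-scores mean more uptake, negative mean less.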 A number with no mark means an inactive call.

Aim: 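Genes whose knockdown alters LDL uptake in liver cancer cells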 (primary screen)
System: human Huh7 hepatoma cells
Reagents: siRNA pool against human genes, 18 nM
Time to read-out: about 2 to 2.5 days of knockdown, then 8 h LDL uptake
Treatment: DiI-labelled LDL at 30 µg/ml for 8 h, in lipoprotein-deficient serum medium
Read-out: 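Fluorescent LDL signal imaged in cells, scaled to the plate median, robust z-score for each replicate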
Scale: robust z-score: higher = more LDL uptake after knockdown
Hit rule: 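a gene counts as active if at least two replicate z-scores exceed ±2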

| gene knocked down | robust z-score, replicate 1 | robust z-score, replicate 2 | robust z-score, replicate 3 |
| --- | --- | --- | --- |
| RSAD2 | -0.371 | -0.227 | -0.293 |
| LINC01138 | 1.46 | 0.871 | 0.446 |
| LOC401119 (retired record) | -0.387 | -0.559 | -0.689 |
| HNF1B | -0.546 | -1.14 | -1.27 |
| CHRM5 | -0.371 | 0.169 | -0.199 |
| NAA40 | 0.756 | 0.37 | 0.795 |
| GNPNAT1 | -2.11 | 0.708 | 2.11 |
| H1-5 | 1.91 | 1.14 | 1.69 |
| LOC440586 (retired record) | 0.64 | -0.0235 | -0.0302 |
| TMUB2 | 1.08 | 0.214 | 0.78 |
| RLIG1 | -0.805 | -0.444 | -0.331 |
| SAP18P2 | -1.08 | -1.45 | -1.5 |
| S100A3 | -0.441 | -0.371 | -0.603 |
| IFT38 | 2.26 | -0.94 | 1.03 |
| CYLC1 | -1.1 | -1.85 | -1.35 |
| TYSND1 | -0.422 | -0.706 | -0.292 |
| MIR663AHG | 0.393 | 0.297 | 0.966 |
| OR6Y1 | -0.309 | -0.0598 | 0.228 |
| ARAP2 | 1.47 | 1.32 | 1.22 |
| ESRRA | 1.17 | 1.26 | 0.767 |
| TRIM77 | -0.0806 | -0.316 | -0.0525 |
| LYRM2 | 2.04 | 1.54 | 0.24 |
| POU3F3 | -0.238 | -0.143 | -0.0559 |
| CALHM4 | 1.24 | 0.761 | 1.31 |
| DLX3 | -1.57 | -1.29 | -2.1 |
| CDC73 | -0.321 | -0.722 | -0.196 |
| SLC26A11 | -1.6 | -1.4 | -1.48 |
| DYNLL2 | -1.64 | -1.68 | -1.56 |
| SDS | 2.5 (active) | 2.48 | 2.59 |
| LOC391298 (retired record) | 0.156 | 0.761 | 0.608 |
| TMEM163 | -0.195 | -0.744 | -0.35 |
| IGSF10 | -0.877 | -1.01 | -1.64 |
| LOC388305 (retired record) | -0.209 | -0.509 | -0.751 |
| LOC389271 (retired record) | 0.512 | 0.861 | 0.867 |
| HLA-DQA1 | -2.64 (active) | -1.76 | -2.32 |
| EXT1 | -3.1 (active) | -1.97 | -1.98 |
| CGRRF1 | -0.0899 | -0.669 | 0.488 |
| HBP1 | 0.112 | -1.54 | 0.434 |
| ARMCX1 | 0.86 | 1.28 | 0.664 |
| GYPB | -1.1 | -0.162 | -0.708 |
| NHLRC1 | 0.946 | -0.0813 | 1 |
| HMGCS1 | 0.781 | 3.71 | 1.26 |
| ATP5MK | -0.343 | 0.144 | -0.15 |
| CHRNA6 | 0.64 | 0.962 | 0.996 |
| LINC01128 | -0.101 | -0.211 | -0.159 |
| CSNK1G2 | -0.176 | -0.896 | -0.684 |
